Experimental data taken from the supplement of paper PMC11006884.
The entries are a selection whose mix differs from that of the whole data set.

Amino acid sequences for entries named in this document (tags omitted). A change or cut given only in a name is not applied to a line headed by its entry.
UniProt Q09161: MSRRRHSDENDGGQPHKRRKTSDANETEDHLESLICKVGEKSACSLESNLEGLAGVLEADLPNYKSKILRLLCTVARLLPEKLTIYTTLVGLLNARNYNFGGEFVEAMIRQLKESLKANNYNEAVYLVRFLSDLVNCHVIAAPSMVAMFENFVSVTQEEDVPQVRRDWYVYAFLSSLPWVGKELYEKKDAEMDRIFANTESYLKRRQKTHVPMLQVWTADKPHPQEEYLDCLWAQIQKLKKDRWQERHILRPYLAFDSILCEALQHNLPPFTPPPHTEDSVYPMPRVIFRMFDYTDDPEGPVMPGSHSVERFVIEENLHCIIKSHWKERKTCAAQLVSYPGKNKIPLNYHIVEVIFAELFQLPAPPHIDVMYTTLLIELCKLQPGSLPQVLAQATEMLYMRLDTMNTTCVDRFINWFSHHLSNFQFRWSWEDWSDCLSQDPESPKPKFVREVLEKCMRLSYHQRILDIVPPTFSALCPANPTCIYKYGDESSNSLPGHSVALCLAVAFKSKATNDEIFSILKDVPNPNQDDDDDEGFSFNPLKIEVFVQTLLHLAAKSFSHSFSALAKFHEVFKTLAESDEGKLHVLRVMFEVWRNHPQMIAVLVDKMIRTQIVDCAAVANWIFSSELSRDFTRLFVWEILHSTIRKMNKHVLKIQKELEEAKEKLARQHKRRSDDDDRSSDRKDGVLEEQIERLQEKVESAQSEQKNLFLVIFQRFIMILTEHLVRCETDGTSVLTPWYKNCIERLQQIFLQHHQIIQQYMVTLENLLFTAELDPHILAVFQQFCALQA
UniProt Q09028, whole entry, looked up: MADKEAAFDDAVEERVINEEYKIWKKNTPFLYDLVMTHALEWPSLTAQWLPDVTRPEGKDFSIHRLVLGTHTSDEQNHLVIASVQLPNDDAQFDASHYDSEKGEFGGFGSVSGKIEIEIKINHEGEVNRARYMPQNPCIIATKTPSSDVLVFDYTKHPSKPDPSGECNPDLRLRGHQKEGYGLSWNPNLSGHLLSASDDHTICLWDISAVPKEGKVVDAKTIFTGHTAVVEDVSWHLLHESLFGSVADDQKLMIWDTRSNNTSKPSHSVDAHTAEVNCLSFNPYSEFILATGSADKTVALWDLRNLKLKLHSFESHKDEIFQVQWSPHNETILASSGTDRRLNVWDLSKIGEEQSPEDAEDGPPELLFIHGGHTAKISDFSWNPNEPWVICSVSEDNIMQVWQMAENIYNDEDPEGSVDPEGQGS
UniProt Q07820, whole entry: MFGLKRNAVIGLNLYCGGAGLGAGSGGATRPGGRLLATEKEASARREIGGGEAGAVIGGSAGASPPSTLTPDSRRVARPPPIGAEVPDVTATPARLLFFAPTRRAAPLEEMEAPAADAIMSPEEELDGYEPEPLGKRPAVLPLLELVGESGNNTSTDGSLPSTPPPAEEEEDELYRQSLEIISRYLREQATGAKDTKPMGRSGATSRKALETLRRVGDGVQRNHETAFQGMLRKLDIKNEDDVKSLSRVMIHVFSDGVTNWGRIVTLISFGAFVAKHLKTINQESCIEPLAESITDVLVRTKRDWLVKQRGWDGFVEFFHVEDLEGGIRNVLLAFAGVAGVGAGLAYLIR
UniProt Q12906, whole entry, looked up: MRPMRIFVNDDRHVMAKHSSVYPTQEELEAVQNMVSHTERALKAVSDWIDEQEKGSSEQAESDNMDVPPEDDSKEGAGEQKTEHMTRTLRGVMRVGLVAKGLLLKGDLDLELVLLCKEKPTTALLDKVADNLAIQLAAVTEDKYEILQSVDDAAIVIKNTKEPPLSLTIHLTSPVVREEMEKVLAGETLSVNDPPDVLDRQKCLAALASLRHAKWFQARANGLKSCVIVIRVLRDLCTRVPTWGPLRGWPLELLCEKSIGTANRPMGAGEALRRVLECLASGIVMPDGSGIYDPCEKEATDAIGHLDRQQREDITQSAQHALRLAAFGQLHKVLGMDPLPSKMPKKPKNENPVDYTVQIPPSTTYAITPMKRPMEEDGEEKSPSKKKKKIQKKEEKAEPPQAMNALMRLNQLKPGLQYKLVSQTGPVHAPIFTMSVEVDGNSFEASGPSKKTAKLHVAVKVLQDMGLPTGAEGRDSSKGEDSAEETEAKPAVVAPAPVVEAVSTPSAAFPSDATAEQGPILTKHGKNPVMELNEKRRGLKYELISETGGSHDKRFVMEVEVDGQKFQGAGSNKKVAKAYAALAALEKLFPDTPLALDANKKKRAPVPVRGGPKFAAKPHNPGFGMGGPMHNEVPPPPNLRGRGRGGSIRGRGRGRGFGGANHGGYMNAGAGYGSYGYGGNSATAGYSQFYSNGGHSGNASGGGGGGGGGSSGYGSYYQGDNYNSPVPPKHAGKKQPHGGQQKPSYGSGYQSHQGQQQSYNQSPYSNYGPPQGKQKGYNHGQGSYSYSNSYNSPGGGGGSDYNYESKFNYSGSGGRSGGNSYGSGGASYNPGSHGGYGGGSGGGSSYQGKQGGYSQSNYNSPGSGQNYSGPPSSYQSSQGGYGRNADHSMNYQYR
UniProt Q13371: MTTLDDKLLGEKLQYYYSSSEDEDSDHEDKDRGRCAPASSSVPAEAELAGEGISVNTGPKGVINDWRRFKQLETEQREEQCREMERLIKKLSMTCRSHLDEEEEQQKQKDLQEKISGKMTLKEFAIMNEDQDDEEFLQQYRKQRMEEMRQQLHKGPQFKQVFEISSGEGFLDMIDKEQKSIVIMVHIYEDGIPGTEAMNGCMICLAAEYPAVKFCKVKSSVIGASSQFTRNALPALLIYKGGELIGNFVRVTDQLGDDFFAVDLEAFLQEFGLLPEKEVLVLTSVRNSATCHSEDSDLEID
UniProt Q13310, whole entry: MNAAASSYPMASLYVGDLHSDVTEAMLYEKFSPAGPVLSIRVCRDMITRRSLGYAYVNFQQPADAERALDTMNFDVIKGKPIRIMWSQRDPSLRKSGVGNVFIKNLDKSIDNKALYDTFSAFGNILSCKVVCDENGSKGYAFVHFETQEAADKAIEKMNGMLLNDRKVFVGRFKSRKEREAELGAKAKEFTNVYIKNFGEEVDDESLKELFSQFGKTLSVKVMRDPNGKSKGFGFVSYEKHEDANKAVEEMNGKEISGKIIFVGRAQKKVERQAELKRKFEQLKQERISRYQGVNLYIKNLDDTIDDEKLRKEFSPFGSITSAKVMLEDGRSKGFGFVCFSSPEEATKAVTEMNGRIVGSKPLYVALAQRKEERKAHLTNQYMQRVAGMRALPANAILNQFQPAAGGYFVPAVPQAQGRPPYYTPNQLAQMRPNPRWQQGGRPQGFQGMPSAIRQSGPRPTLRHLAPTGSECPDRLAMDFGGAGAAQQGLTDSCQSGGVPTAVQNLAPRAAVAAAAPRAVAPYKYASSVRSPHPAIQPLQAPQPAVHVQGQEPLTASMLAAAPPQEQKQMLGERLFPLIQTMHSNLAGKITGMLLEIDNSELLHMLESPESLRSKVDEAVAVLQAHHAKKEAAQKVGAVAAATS
UniProt Q13428: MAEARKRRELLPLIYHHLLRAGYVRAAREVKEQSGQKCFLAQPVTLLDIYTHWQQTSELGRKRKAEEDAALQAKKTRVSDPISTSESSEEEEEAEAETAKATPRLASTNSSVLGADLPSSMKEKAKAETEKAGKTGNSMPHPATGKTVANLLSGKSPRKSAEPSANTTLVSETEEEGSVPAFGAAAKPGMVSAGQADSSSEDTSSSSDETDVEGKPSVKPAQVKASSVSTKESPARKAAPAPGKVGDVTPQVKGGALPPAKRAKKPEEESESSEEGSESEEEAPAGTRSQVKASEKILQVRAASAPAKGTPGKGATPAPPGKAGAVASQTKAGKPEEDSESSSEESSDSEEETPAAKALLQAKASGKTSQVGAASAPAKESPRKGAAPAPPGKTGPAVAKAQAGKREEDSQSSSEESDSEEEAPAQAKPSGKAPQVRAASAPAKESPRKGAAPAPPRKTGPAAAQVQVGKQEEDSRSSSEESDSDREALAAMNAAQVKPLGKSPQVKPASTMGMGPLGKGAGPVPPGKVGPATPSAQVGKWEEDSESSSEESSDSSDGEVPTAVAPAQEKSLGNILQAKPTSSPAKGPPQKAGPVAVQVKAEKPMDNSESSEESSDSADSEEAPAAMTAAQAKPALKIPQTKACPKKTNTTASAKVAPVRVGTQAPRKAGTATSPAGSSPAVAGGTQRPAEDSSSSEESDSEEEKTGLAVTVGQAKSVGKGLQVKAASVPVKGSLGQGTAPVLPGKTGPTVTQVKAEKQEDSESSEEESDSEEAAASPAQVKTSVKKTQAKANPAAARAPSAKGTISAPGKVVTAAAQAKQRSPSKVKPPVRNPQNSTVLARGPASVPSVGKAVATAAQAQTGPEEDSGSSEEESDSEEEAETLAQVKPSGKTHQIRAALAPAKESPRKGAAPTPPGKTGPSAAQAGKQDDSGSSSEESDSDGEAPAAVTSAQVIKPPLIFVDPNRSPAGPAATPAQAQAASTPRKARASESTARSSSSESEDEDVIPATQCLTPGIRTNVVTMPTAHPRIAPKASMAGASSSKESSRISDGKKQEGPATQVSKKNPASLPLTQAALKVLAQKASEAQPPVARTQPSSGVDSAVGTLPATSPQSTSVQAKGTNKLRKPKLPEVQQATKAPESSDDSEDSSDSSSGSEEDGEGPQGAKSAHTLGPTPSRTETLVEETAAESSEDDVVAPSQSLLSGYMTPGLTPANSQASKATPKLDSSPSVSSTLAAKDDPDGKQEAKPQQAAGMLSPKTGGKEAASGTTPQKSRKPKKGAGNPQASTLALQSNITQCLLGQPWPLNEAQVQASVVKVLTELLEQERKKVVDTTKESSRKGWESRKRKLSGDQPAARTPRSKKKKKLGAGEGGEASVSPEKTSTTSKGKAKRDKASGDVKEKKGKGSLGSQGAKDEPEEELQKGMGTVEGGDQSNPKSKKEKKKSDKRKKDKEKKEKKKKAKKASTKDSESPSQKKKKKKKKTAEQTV
UniProt Q02930: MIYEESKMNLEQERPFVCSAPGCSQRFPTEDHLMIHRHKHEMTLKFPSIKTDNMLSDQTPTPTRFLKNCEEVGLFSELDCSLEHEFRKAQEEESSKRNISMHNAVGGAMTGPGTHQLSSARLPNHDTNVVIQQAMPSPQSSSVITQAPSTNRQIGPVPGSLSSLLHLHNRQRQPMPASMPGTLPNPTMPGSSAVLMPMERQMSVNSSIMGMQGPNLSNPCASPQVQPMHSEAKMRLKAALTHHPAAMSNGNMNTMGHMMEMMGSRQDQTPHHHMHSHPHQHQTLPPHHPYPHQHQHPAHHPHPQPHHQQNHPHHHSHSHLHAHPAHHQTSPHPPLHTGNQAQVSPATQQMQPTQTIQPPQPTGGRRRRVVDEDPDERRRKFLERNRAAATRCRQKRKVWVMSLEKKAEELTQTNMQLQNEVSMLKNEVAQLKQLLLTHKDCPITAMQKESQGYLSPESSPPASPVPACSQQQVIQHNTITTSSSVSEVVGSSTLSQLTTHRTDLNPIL
UniProt Q13162: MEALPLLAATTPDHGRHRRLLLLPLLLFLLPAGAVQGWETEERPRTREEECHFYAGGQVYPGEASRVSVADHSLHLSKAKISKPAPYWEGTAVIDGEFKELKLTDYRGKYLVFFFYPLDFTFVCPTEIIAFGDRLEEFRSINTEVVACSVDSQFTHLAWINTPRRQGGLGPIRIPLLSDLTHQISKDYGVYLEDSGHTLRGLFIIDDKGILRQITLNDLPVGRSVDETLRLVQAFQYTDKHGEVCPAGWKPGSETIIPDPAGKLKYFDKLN
UniProt Q06203, whole entry, looked up: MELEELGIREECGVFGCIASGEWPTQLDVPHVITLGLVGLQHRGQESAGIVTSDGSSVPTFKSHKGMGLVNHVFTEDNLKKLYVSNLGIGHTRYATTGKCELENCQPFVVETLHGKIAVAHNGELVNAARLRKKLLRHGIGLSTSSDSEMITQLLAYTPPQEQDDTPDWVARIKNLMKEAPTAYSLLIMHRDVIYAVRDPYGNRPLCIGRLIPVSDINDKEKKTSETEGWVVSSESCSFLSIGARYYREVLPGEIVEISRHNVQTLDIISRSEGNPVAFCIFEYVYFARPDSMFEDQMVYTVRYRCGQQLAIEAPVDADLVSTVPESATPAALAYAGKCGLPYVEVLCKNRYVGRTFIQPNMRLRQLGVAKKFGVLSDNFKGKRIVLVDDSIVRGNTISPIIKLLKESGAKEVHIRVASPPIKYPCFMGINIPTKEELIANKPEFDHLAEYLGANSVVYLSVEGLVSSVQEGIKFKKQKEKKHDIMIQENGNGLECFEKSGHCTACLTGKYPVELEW
UniProt Q06587: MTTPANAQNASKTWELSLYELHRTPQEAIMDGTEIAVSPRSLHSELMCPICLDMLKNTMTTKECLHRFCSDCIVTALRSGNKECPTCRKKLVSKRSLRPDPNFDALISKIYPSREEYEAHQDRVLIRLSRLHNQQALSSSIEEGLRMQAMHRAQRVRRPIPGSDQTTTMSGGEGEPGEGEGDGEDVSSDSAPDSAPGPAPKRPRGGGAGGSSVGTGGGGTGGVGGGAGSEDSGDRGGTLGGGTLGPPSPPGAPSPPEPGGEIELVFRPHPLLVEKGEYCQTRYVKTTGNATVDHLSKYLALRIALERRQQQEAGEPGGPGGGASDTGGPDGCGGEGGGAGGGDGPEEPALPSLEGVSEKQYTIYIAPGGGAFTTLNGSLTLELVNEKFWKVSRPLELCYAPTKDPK

These targets were tested with COC(=O)C#Cc1ccccc1 [methyl 3-phenylpropiolate] (assay: log2 ratio of iodoacetamide-alkyne labeling of the cysteine site, DMSO over compound (competition); higher = stronger covalent engagement of the cysteine by the compound, active = 1 or more). Conditions: 500 µM; treatment time 1 h; system: HEK293T cell lysate.
Outline: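 The log2 competition ratio per cysteine is defined as mean reporter intensity in control channels over mean reporter intensity in compound channels. Lysate from HEK293T cells (2 mg/mL) received electrophile (500 µM) or vehicle for 1 h at ambient temperature, followed by iodoacetamide alkyne for 1 h. Samples were clicked to sCIP-TMT reagents, pooled, trypsin-digested overnight at 37 °C, streptavidin-enriched, acid-eluted and run on Orbitrap Eclipse LC-MS/MS with FAIMS, with quantification in FragPipe. Three replicates with duplicate channels were used, and any cysteine quantified in only one replicate was excluded.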
For NCBP1 C44 (UniProt Q09161), the “log2 ratio of iodoacetamide-alkyne labeling” value (from here on “log2 ratio”) was inactive: 0.144.
For GTF3C1 C1681 (UniProt Q12789), the “log2 ratio” value was inactive: 0.12.
For UniProt Q09028_C167, the “log2 ratio” value was inactive: 0.199.
MCL1 C16 (UniProt Q07820) was tested, and the “log2 ratio” value was inactive: 0.348.
For ILF3 C278 (UniProt Q12906), the “log2 ratio” value was inactive: -0.191.
For PDCL C35 (UniProt Q13371), the “log2 ratio” value was inactive: -0.0134.
In the case of SOS1 C926 (UniProt Q07889), the “log2 ratio” value is reported as inactive: -0.0185.
For PABPC4 C132 (UniProt Q13310), the “log2 ratio” value was inactive: 0.046.
With TCOF1 C1298 (UniProt Q13428) the “log2 ratio” value was inactive: 0.666.
UniProt Q02930_C80 was tested, and the “log2 ratio” value was active: 1.09.
For PRDX4 C245 (UniProt Q13162), the “log2 ratio” value was inactive: 0.5.
With PPAT C105 (UniProt Q06203) the “log2 ratio” value was inactive: 0.528.
In the case of NSUN2 C599 (UniProt Q08J23), the “log2 ratio” value is reported as inactive: 0.0845.
RING1 C72 (UniProt Q06587) was tested, and the “log2 ratio” value was inactive: 0.171.
